{"source": "PubChem BioAssay AID504834", "about": "(National Center for Advancing Translational Sciences (NCATS), 2011)", "note": "Hit rate of the full screen: of about 320,000 compounds, about 22,000 (6.9%) were called active. The shares of active, inactive and inconclusive entries below differ from those in the screen. The call rests on the fitted dose curve; in most records, active means well fitted inhibition curve with a large enough effect; inconclusive means small, poorly fitted or top-dose-only effect, or another doubt; inactive means no such curve, though single readings can be large or run the other way. Potencies beside an inconclusive call are fits to weak or partial responses and may not hold up. On the % scale 0 is the no-effect control and ±100 the full control effect; potency means the concentration at half of the fitted maximal effect.", "data": [{"test": "Primary qHTS for delayed death inhibitors of the malarial parasite plastid, 96 hour incubation", "settings": "P. falciparum luciferase reporter growth; series mostly up to 28.7 µM; activity change, negative = inhibition: at the top concentration", "procedure,_shortened": "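P. falciparum expressing integrated firefly luciferase grown in erythrocytes (2% hematocrit, 0.05% parasitemia final) with compounds for 96 hours at 37 C, 5% CO2. Growth inhibition read as loss of luminescence after adding luciferase detection reagent.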", "values": [{"compound": "COc1ccc(CN(C)C(=O)c2cccc(S(=O)(=O)N3CCN(c4ccccc4)CC3)c2)c(OC)c1OC", "Potency": "inconclusive: 10.4 µM [inhibitor, partial curve]"}, {"compound": "COC(=O)Cc1c[nH]c2ccc(OCC(O)CNC(C)C)cc12", "note": "(stereo not drawn)", "Potency": "inconclusive: 18.5 µM [inhibitor, single point]"}, {"compound": "CCOc1ccc(CSC2=NCCN2)cc1[N+](=O)[O-]", "Potency": "inconclusive: 18.5 µM [inhibitor, single point]"}, {"compound": "CC1(C)CCCN(Cc2c(O)ccc3c(=O)c(-c4nc5ccccc5s4)c(N)oc23)C1", "Potency": "inconclusive: 0.0329 µM [inhibitor, full curve, poor fit]"}, {"compound": "CC(C)OC(=O)c1cccc(NC(=O)c2ccccc2)c1", "activity change, negative = inhibition": "inactive: 145%"}, {"compound": "CCN(CC)c1nc2n(c(=O)n1)CCO2", "activity change, negative = inhibition": "inactive: 86.4%"}, {"compound": "CCCCn1c(=O)c(C(=O)Nc2nc3ccccc3[nH]2)c(O)c2ccccc21", "Potency": "inconclusive: 13.1 µM [inhibitor, single point]"}, {"compound": "Cc1cccc(C(=O)NC(C)C(=O)NC(c2nc3ccccc3[nH]2)C(C)C)c1", "note": "(stereo not drawn)", "activity change, negative = inhibition": "inactive: 34.2%"}, {"compound": "O=C(NCCCn1ccnc1)C(Cc1ccc([N+](=O)[O-])cc1)N1C(=O)c2ccccc2C1=O", "note": "(stereo not drawn)", "Potency": "inconclusive: 11.7 µM [inhibitor, partial curve, poor fit]"}, {"compound": "COc1cccc(C2C3=C(CC(C)(C)CC3=O)Nc3cc4c(cc32)OCO4)c1", "note": "(stereo not drawn)", "Potency": "inconclusive: 18.5 µM [inhibitor, single point]"}, {"compound": "COc1ccc(NC(=O)CSCC(=O)N(C)Cc2c(F)cccc2Cl)cc1", "Potency": "inconclusive: 13.1 µM [inhibitor, partial curve, poor fit]"}, {"compound": "CC1(C)C2CCC1(CS(=O)(=O)NC1CCCC1)C(=O)C2", "note": "(stereo not drawn)", "Potency": "inconclusive: 7.38 µM [inhibitor, partial curve, poor fit]"}, {"compound": "O=C(Cn1c(=O)n(-c2ccc(F)cc2)c(=O)c2sccc21)N1CCCC1", "Potency": "inconclusive: 0.828 µM [inhibitor, full curve]"}, {"compound": "Cc1cccc(OCCC(=O)NCC(c2ccco2)N2CCCCC2)c1", "note": "(stereo not drawn)", "Potency": "inconclusive: 18.5 µM [inhibitor, single point]"}, {"compound": "CCOC(=O)[C@H]1[C@H]2COc3ccc(OC)cc3[C@@H]2N2C(=O)CN(C)C(=O)[C@@]12C", "Potency": "inconclusive: 4.65 µM [inhibitor, single point]"}, {"compound": "O=C(CSc1ccc(-c2ccc(Cl)cc2)nn1)N1CCCc2ccccc21", "Potency": "inconclusive: 18.5 µM [inhibitor, single point]"}, {"compound": "Cc1ccc(S(=O)(=O)N2CCC(=O)N(C(COCc3ccc(Cl)cc3Cl)Cc3ccccc3)CC2)cc1", "note": "(stereo not drawn)", "Potency": "inconclusive: 7.38 µM [inhibitor, partial curve, poor fit]"}, {"compound": "COc1cccc2cc(C(=O)CS(=O)(=O)c3ccc(Cl)cc3)c(=O)oc12", "activity change, negative = inhibition": "inactive: -2.94%"}, {"compound": "O=C(Nc1ccc(OCc2ccccc2)cc1)c1cccs1", "activity change, negative = inhibition": "inactive: 137%"}, {"compound": "Cc1cc(C(=O)CNCc2ccco2)c(C)n1-c1ccc(F)cc1", "activity change, negative = inhibition": "inactive: 18.8%"}, {"compound": "Nc1ccc(S(=O)(=O)NC2(C(F)(F)F)NC(=O)N(c3ccc(F)cc3)C2=O)cc1", "note": "(stereo not drawn)", "activity change, negative = inhibition": "inactive: 21.8%"}, {"compound": "O=C(CSc1cn(CC(=O)N2CCOCC2)c2ccccc12)N1CCOCC1", "Potency": "inconclusive: 3.29 µM [inhibitor, full curve]"}, {"compound": "CCOC(=O)C1=CC[C@@H](c2ccco2)N(S(=O)(=O)c2ccc(C)cc2)[C@H]1C(=O)OCC", "Potency": "inconclusive: 14.7 µM [inhibitor, single point]"}, {"compound": "CC(=O)OC1CSC2c3ccccc3C(=O)N2Cc2sccc21", "note": "(stereo not drawn)", "activity change, negative = inhibition": "inactive: -1.91%"}, {"compound": "COC(=O)C1=C(c2ccc(F)cc2F)C[C@@H]2CC[C@H]1N2C(=O)NCCOc1ccccc1", "Potency": "active: 4.15 µM"}, {"compound": "CC(=O)Oc1cccc(NC(=O)c2ccc3c(c2)C(=O)N(CC(C)C)C3=O)c1", "activity change, negative = inhibition": "inactive: 199%"}, {"compound": "CCCNC(=O)N1CCC(C(=O)c2ccc(Cl)cc2)CC1", "Potency": "inconclusive: 0.0828 µM [inhibitor, full curve, poor fit]"}, {"compound": "Cc1cc(Br)c(NC(=O)Cn2c([N+](=O)[O-])cnc2C)cc1C", "Potency": "inconclusive: 18.5 µM [inhibitor, single point]"}, {"compound": "CS(=O)(=O)c1ccc(C(=O)CN2C(=O)NC3(CCCc4ccccc43)C2=O)cc1", "note": "(stereo not drawn)", "Potency": "inconclusive: 11.7 µM [inhibitor, single point]"}, {"compound": "O=c1[nH]c2ccccc2nc1/C=C/c1ccc(Cl)cc1", "activity change, negative = inhibition": "inactive: 36.2%"}, {"compound": "CC(C)(C)c1cc(C2=CSC3=NCCN23)cc(C(C)(C)C)c1O", "Potency": "active: 4.65 µM"}, {"compound": "O=C(CNC(=O)N1CC(=O)Nc2ccccc21)Nc1ccccc1F", "Potency": "inconclusive: 20.8 µM [inhibitor, single point]"}, {"compound": "O=C(CNc1cccc(S(=O)(=O)N2CCCC2)c1)Nc1ccc(C(F)(F)F)cc1", "Potency": "active: 1.85 µM"}, {"compound": "COc1ccccc1C(=O)NCC(=O)NCCC(c1ccccc1)c1ccccc1", "Potency": "inconclusive: 4.65 µM [inhibitor, partial curve, poor fit]"}, {"compound": "O=c1nc(-c2ccccc2)cc(C(F)(F)F)[nH]1", "Potency": "inconclusive: 0.0185 µM [inhibitor, full curve, poor fit]"}, {"compound": "Cc1ccc(OCCCCn2ccnc2C)c(C)c1", "activity change, negative = inhibition": "inactive: -21.5%"}, {"compound": "CCCOc1cccc(NC(=O)c2cc(C)oc2C)c1", "Potency": "inconclusive: 20.8 µM [inhibitor, single point]"}, {"compound": "COC(=O)c1scc(C)c1N1C(=O)c2ccccc2C1=O", "activity change, negative = inhibition": "inactive: 35.4%"}, {"compound": "COc1cccc(NC(=O)Cn2nnc(C(=O)Nc3cc(Cl)ccc3OC)c2N)c1", "Potency": "inconclusive: 3.7 µM [inhibitor, partial curve]"}, {"compound": "O=C(c1ccc(F)cc1)c1cn(Cc2ccc(F)cc2)c2cc3c(cc2c1=O)OCCO3", "Potency": "inconclusive: 18.5 µM [inhibitor, single point]"}, {"compound": "Cc1ccc(C)c(SCC(=O)NCc2ccco2)c1", "Potency": "inconclusive: 0.0828 µM [inhibitor, full curve, poor fit]"}, {"compound": "COc1cc(OC)cc(-c2nnc(NC(=O)CCS(=O)(=O)c3ccccc3)o2)c1", "activity change, negative = inhibition": "inactive: 4.91%"}, {"compound": "CCN(CC)CCn1c2c(c(SCC(=O)Nc3nc4ccccc4s3)nc1=O)CCC2", "Potency": "inconclusive: 4.65 µM [inhibitor, partial curve]"}, {"compound": "O=C(c1ccccc1Br)N1CCN(Cc2ccc3c(c2)OCO3)CC1", "Potency": "inconclusive: 0.0738 µM [inhibitor, full curve, poor fit]"}, {"compound": "CCN(C(=O)CCCC(=O)N(CC)c1ccccc1)c1ccccc1", "Potency": "inconclusive: 10.4 µM [inhibitor, single point]"}, {"compound": "CC(=O)N1c2ccc(S(=O)(=O)N(C)c3cc(C)ccc3C)cc2CC1C", "note": "(stereo not drawn)", "Potency": "inconclusive: 13.1 µM [inhibitor, partial curve, poor fit]"}, {"compound": "CCCCn1c(N)c(N(Cc2ccccc2OC)C(=O)COc2ccc(F)cc2Cl)c(=O)[nH]c1=O", "Potency": "inconclusive: 11.7 µM [inhibitor, single point]"}, {"compound": "CNC(=S)N1C2CCCC1CC(NC(=O)c1ccc(F)cc1)C2", "note": "(stereo not drawn)", "Potency": "inconclusive: 18.5 µM [inhibitor, single point]"}, {"compound": "CC(Sc1ccc(Cl)cc1)C(=O)NNC(=O)c1ccccc1O", "note": "(stereo not drawn)", "Potency": "inconclusive: 14.7 µM [inhibitor, single point]"}, {"compound": "O=C(N/N=C/C=C/c1ccccc1)c1cccc(Br)c1", "Potency": "inconclusive: 10.4 µM [inhibitor, single point]"}, {"compound": "O=C(NCc1cc(C(F)(F)F)ccc1F)C1CCC(=O)N(C2CCCCCC2)C1", "note": "(stereo not drawn)", "Potency": "inconclusive: 13.1 µM [inhibitor, single point]"}, {"compound": "COCCNC(=O)CN(C(=O)Cn1nnc2ccccc21)c1cc(C)cc(C)c1", "activity change, negative = inhibition": "inactive: 3.49%"}, {"compound": "C/C(=N\\NC(=O)c1cc(-c2ccncc2)nc2ccccc12)c1ccc(OC(F)F)cc1", "Potency": "active: 3.29 µM"}, {"compound": "O=C(C1CCCN(c2ncnc3c2nc2n3CCCCC2)C1)N1CCN(c2cccc(Cl)c2)CC1", "note": "(stereo not drawn)", "Potency": "inconclusive: 4.65 µM [inhibitor, partial curve, poor fit]"}, {"compound": "COc1ccc(-c2cc(C(=O)N3CCCCCC3)no2)cc1OC", "activity change, negative = inhibition": "inactive: 134%"}, {"compound": "O=C(c1cccc(Br)c1)N1CCN(c2ccc(N3CCOCC3)nn2)CC1", "Potency": "inconclusive: 13.1 µM [inhibitor, single point]"}, {"compound": "COc1ccc(C[C@H]2CN3C(=NC[C@@H]3Cc3ccc(O)cc3)N2CCNC(=O)c2ccc(C)c(Br)c2)cc1", "Potency": "active: 1.17 µM"}, {"compound": "O=C(NC(Cc1ccccc1)c1nc2ccccc2[nH]1)c1ccc(Cl)c([N+](=O)[O-])c1", "note": "(stereo not drawn)", "Potency": "inconclusive: 18.5 µM [inhibitor, single point]"}, {"compound": "O=C(NCCNC(=O)c1ccccn1)c1ccc(F)cc1", "activity change, negative = inhibition": "inactive: 54.3%"}, {"compound": "Cc1csc(SCC(=O)N2CCN(S(=O)(=O)c3ccc(Cl)cc3)CC2)n1", "Potency": "inconclusive: 9.28 µM [inhibitor, single point]"}, {"compound": "O=C(NCc1ccco1)C1CCCN(S(=O)(=O)c2ccccc2)C1", "note": "(stereo not drawn)", "activity change, negative = inhibition": "inactive: -64.2%"}, {"compound": "O=C(O)CCn1c(=O)n(CCC(=O)O)c(=O)n(CCC(=O)O)c1=O", "Potency": "inconclusive: 20.8 µM [inhibitor, partial curve, poor fit]"}, {"compound": "OC(CN1CCCCC1)Cn1c2ccc(Cl)cc2c2cc(Cl)ccc21", "note": "(stereo not drawn)", "Potency": "inconclusive: 1.65 µM [inhibitor, full curve, poor fit]"}, {"compound": "CC(C)N(N=Nc1ccc([N+](=O)[O-])cc1)C(C)C", "Potency": "inconclusive: 18.5 µM [inhibitor, single point]"}, {"compound": "O=C(c1ccco1)[C@@H]1[C@@H]2C(=O)N(c3ccc(F)cc3)C(=O)[C@@H]2[C@H]2C=Cc3ccccc3N21", "Potency": "active: 3.7 µM"}, {"compound": "Cc1ccc(C(=O)N/C(=C/c2ccc(Cl)cc2)C(=O)N2CCOCC2)cc1", "activity change, negative = inhibition": "inactive: 26.6%"}, {"compound": "COc1ccc(/C(N)=N/OC(=O)c2ccc3c(c2)OCO3)cc1", "activity change, negative = inhibition": "inactive: 9.34%"}, {"compound": "CCOC(=O)N1CCN(CC(O)COC(CC)c2ccccc2)CC1", "note": "(stereo not drawn)", "Potency": "inconclusive: 0.037 µM [inhibitor, full curve, poor fit]"}]}]}
